The values that follow come from PMC5349851.

Some test systems named below: MAFB + MAFB; ATF6B + ATF6B; NFE2 + MAFG; NFE2L1 + NFE2L1; MAFG + MAFG; MAFB + FOSL1; MAFB + ATF5; ATF6 + ATF6; ATF5 + ATF6B; NFE2L1 + MAFG; ATF5 + FOS.
Common to all, as to assay: SELEX-seq (CSI, HT-SELEX, round 3)
Holding throughout (conditions): SELEX-seq: 1x PBS (10 mM phosphate, 137 mM NaCl, 2.7 mM KCl) pH 7.6, 2.5 mM DTT, 50 ng/ul poly dI-dC, 0.1% BSA, 50 nM biotinylated bZIP (1:3 with partner for …); high values mean tight binding; double strand, one strand shown

In the next experiment the test system is T1, ATF5 + BATF.
T1 sequence 1: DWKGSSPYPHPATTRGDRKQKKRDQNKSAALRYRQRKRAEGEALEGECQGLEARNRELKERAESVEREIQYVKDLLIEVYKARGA
T1 sequence 2: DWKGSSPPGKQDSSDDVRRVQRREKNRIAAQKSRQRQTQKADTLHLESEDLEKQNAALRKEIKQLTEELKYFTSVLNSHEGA

A further experiment relates to T2, NFE2 + NFE2.
T2 sequence 1: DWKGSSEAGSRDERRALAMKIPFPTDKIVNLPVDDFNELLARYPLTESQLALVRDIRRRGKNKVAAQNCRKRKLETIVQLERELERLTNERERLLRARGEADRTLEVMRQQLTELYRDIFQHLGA
T2 sequence 2: T2 sequence 1

The subject of the next experiment is T3, HLF + HLF.
T3 sequence 1: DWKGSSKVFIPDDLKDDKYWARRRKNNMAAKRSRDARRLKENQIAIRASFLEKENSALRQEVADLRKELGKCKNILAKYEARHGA
T3 sequence 2: T3 sequence 1

The test system of another experiment is T4, CREB1 + CREB1.
T4 sequence 1: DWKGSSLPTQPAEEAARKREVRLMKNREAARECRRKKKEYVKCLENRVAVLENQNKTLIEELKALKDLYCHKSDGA
T4 sequence 2: T4 sequence 1

The next experiment concerns T5, CREB3 + CREB3.
T5 sequence 1: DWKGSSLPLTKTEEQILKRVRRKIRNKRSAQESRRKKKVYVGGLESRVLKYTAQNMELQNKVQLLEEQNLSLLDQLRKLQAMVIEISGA
T5 sequence 2: T5 sequence 1

For another experiment, the system named is T6, ATF5 + CREB3L1.
T6 sequence 1: T1 sequence 1
T6 sequence 2: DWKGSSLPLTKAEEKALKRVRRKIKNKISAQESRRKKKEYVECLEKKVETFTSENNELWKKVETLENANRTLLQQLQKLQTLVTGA

The subject of another experiment is T7, ATF5 + BATF2.
T7 sequence 1: T1 sequence 1
T7 sequence 2: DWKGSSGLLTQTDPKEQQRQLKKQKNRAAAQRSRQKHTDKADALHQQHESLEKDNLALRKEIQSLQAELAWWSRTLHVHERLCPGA

The next experiment has as its system T8, ATF5 + CREB3L3.
T8 sequence 1: T1 sequence 1
T8 sequence 2: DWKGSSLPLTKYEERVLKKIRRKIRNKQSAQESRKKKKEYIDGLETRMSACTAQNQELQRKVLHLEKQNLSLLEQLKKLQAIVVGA

The next experiment relates to T9, CREB3L1 + CREB3L1.
T9 sequence 1: T6 sequence 2
T9 sequence 2: T6 sequence 2

The entries are a selection whose mix differs from that of the whole data set. At the low end of the ranking, values are background and their order means little. This is one part of the list.

Take ATGACGTCAT: the binding signal (relative CSI intensity (max = 1)) was found to be 0.864 with ATF5 + BATF; 0.112 with NFE2 + NFE2; 0.205 with HLF + HLF; 7.73e-05 in the experiment on MAFB + MAFB; 0.0846 with ATF6B + ATF6B; 0.577 in the experiment on CREB1 + CREB1. In the experiment with CREB3 + CREB3, the binding signal (relative CSI intensity (max = 1)) came to 0.325.

As for ATGACGGAAT, the binding signal (relative CSI intensity (max = 1)) is -0.00124 with ATF5 + BATF; 0.000706 with ATF5 + CREB3L1; -0.0046 in the experiment on ATF5 + BATF2; 0.000386 in the experiment on ATF5 + CREB3L3; 0.000368 with NFE2 + NFE2; 0.000874 with NFE2 + MAFG. The binding signal (relative CSI intensity (max = 1)) in the experiment with NFE2L1 + NFE2L1 is 0.0005; in the experiment on HLF + HLF, 8.61e-05; in the experiment on MAFG + MAFG, 0.00454; in the experiment on MAFB + FOSL1 it was -5.39e-05; with MAFB + ATF5, 0.000305; in the experiment with MAFB + MAFB, -0.000156. For the same sequence, the binding signal (relative CSI intensity (max = 1)) with CREB3L1 + CREB3L1 is -0.000197; in the experiment with ATF6B + ATF6B it was -2.27e-05; in the experiment with ATF6 + ATF6, -6.75e-05; with CREB1 + CREB1, 6.15e-05; with CREB3 + CREB3, -0.00282; in the experiment on ATF5 + ATF6B it was -0.0011.

In the case of CCTGACGTCA, the binding signal (relative CSI intensity (max = 1)) in the experiment on NFE2 + NFE2 was 0.000777; with NFE2L1 + NFE2L1, -0.000196; in the experiment on NFE2L1 + MAFG it was -0.00096; in the experiment on HLF + HLF, 0.000268; in the experiment with MAFG + MAFG it was -0.00283; with MAFB + MAFB, -0.000208. Besides, in the experiment on CREB3L1 + CREB3L1, the binding signal (relative CSI intensity (max = 1)) was 7.6e-05.

ATGACGTAAT: the binding signal (relative CSI intensity (max = 1)) in the experiment on ATF5 + BATF was 0.0375; with NFE2 + NFE2, 0.00452; with NFE2L1 + NFE2L1 it was 0.000859; in the experiment with NFE2L1 + MAFG it was 0.0021; in the experiment on MAFB + MAFB, -9.67e-05; in the experiment on CREB3L1 + CREB3L1, 0.000769. The binding signal (relative CSI intensity (max = 1)) in the experiment on CREB1 + CREB1 turned out to be 0.00977.

In the case of ATGATGCAAT, the binding signal (relative CSI intensity (max = 1)) in the experiment on ATF5 + FOS is -0.0141; in the experiment with ATF5 + CREB3L3, 0.000518; with NFE2 + NFE2, 0.000529; with NFE2L1 + NFE2L1, 0.000218; in the experiment with MAFB + MAFB it was -2.19e-05; in the experiment on CREB3L1 + CREB3L1 it was -6.68e-05. The binding signal (relative CSI intensity (max = 1)) is -0.000145 in the experiment on ATF6B + ATF6B, 0.000181 in the experiment with ATF6 + ATF6, 6.41e-05 in the experiment on CREB1 + CREB1 and -0.00583 in the experiment on CREB3 + CREB3.

With ATGACGCAAT, the binding signal (relative CSI intensity (max = 1)) with ATF5 + CREB3L1 is 0.000994; in the experiment on ATF5 + CREB3L3 it was 0.000466; in the experiment with NFE2 + NFE2, 0.0016; in the experiment on NFE2L1 + NFE2L1, 0.000917; with MAFG + MAFG it was 0.000738; in the experiment on MAFB + MAFB, -7.64e-05. For the same sequence, the binding signal (relative CSI intensity (max = 1)) in the experiment with CREB3L1 + CREB3L1 came out at 0.000144; in the experiment with ATF6B + ATF6B, 0.00034; in the experiment on CREB1 + CREB1 it was 0.000887.
